Results as given in PMC10014102.
Results are given in words; binding and its absence hold for the method and conditions named. In cells and extracts the contact can be indirect. Some results given as binding are weak or reduced against the parent protein; the word gives no strength.

Biological target: mouse R172H mutp53 (knockin, thymic lymphomas) (mouse (endogenous in thymic lymphomas)) (UniProt P02340)
Assay: co-IP; endogenous proteins in thymic lymphomas of TRIM21+/+ p53R172H/R172H and TRIM21-/- p53R172H/R172H mice

B1: mouse TRIM21 (endogenous, thymic lymphomas) (enzyme, UniProt Q62191 1-470)
chain: MSPSTTSKMSLEKMWEEVTCSICLDPMVEPMSIECGHCFCKECIFEVGKNGGSSCPECRQQFLLRNLRPNRHIANMVENLKQIAQNTKKSTQETHCMKHGEKLHLFCEEDGQALCWVCAQSGKHRDHTRVPIEEAAKVYQEKIHVVLEKLRKGKELAEKMEMDLTMQRTDWKRNIDTQKSRIHAEFALQNSLLAQEEQRQLQRLEKDQREYLRLLGKKEAELAEKNQALQELISELERRIRGSELELLQEVRIILERSGSWNLDTLDIDAPDLTSTCPVPGRKKMLRTCWVHITLDRNTANSWLIISKDRRQVRMGDTHQNVSDNKERFSNYPMVLGAQRFSSGKMYWEVDVTQKEAWDLGVCRDSVQRKGQFSLSPENGFWTIWLWQDSYEAGTSPQTTLHIQVPPCQIGIFVDYEAGVVSFYNITDHGSLIYTFSECVFAGPLRPFFNVGFNYSGGNAAPLKLCPLKM
binding: binds
